{"sequences": {"note": "Protein sequences, listed by entry. Tags and fused reporters are not part of them. Lines headed by an entry give the natural chain unless they say otherwise; changes in a name come on top.", "UniProt P51450": "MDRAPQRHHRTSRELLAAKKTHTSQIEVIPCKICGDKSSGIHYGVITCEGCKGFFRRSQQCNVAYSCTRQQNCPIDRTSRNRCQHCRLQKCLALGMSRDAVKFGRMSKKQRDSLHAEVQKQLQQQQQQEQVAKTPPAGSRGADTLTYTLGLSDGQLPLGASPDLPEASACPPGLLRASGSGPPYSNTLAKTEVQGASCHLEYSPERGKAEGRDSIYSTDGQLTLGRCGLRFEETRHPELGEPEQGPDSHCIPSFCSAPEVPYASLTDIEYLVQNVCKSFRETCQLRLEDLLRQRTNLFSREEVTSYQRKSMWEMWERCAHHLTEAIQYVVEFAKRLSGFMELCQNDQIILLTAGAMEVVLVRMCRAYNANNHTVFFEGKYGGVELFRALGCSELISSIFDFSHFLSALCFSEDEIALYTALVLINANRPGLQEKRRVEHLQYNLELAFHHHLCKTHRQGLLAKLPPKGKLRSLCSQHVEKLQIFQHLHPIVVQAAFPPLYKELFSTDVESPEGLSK"}, "source": "PubChem BioAssay AID2551", "about": "(National Center for Advancing Translational Sciences (NCATS), 2010)", "note": "In all, about 310,000 compounds went through this assay and about 17,000 (5.5%) were called active. This list was built around the results that the source calls inconclusive (neither active nor inactive); the mix of calls is not that of the screen. Calls come from the whole dose curve; as a rule, active = well fitted inhibition curve with a large enough effect; inconclusive = small, poorly fitted or top-dose-only effect, or effect the other way; inactive = no such curve, though single readings can be large or run the other way. Potencies of inconclusive entries are doubtful fits and often do not repeat. The source holds several records for some structures; these can differ, active in one and inactive in another. % is set by controls: 0 for no effect and ±100 for the full control effect; potency is the fitted concentration of half-maximal effect."}
{"target": "Nuclear receptor ROR-gamma (Mus musculus) (UniProt P51450)", "experiment": "qHTS for inhibitors of ROR gamma transcriptional activity; note: nearly all actives have a fitted effect of over 60% in size", "settings": "Drosophila S2 Gal4-RORgamma UAS-luciferase reporter, 20 h; activity change, negative = inhibition: at 53.6 µM (top of the series)", "in_short": "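In this cell-based reporter format, copper sulfate (700 uM final) drives Gal4–ROR gamma fusion expression from a metallothionein promoter in Drosophila Schneider cells; compounds preincubated 1 hr, reporter read after 20 hr at ambient temperature.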"}
{"smiles": "O=C(NC(=S)NNC(=O)c1cc2ccccc2cc1O)c1ccco1", "Potency": "inconclusive: 35.5 µM [inhibitor, single point]"}
{"smiles": "O=C(c1ccc(CSc2nc3ccncc3[nH]2)cc1)N1CCN(c2cccc(Cl)c2)CC1", "Potency": "inconclusive: 2.24 µM [activator, single point]"}
{"smiles": "COc1cc(-c2noc(C)c2/C=C/c2ccc(N)cc2)cc(OC)c1OC", "Potency": "inconclusive: 4.47 µM [inhibitor, partial curve]"}
{"smiles": "COc1ccc(NC2CC(=O)N(CCc3ccccc3)C2=O)cc1", "note": "(stereo unspecified)", "Potency": "inconclusive: 10 µM [activator, single point]"}
{"smiles": "CCN1C(=S)N[C@@H](CCc2ccccc2)C(C(=O)OC)=C1C", "Potency": "active: 4.47 µM"}
{"smiles": "COc1ccc(/C=c2\\s/c(=C/C(=O)c3ccc(C)cc3)[nH]c2=O)cc1OC", "Potency": "active: 12.6 µM"}
{"smiles": "CCCn1c2ccccc2c2cnn(CC(=O)NCCN(CC)CC)c(=O)c21", "activity change, negative = inhibition": "inactive: 26.9%"}
{"smiles": "Cc1cc(C)c(C#N)c(Nc2ccccc2Cl)n1", "activity change, negative = inhibition": "inactive: -11.5% [at 10 µM]"}
{"smiles": "Cc1ccoc1C(=O)N1CCCC(CCC(=O)N2CCN(c3ccccn3)CC2)C1", "note": "(stereo unspecified)", "activity change, negative = inhibition": "inactive: -3.26%"}
{"smiles": "COc1cccc(NC2=C(C#N)C(=O)NC(c3cccc(OC)c3O)S2)c1", "note": "(stereo unspecified)", "Potency": "inconclusive: 35.5 µM [inhibitor, single point]"}
{"smiles": "Cc1ccc(NC(=O)Cc2cc(C(=O)O)c3ccccc3n2)c(C)c1", "Potency": "inconclusive: 35.5 µM [inhibitor, single point]"}
{"smiles": "N#CCC1c2ccccc2CCN1C(=O)Nc1cccc(C(F)(F)F)c1", "note": "(stereo unspecified)", "Potency": "inconclusive: 31.6 µM [inhibitor, single point]"}
{"smiles": "COc1ccc(NS(=O)(=O)c2cc(NC(=O)c3cnc(C)cn3)ccc2N2CCCCC2)cc1", "activity change, negative = inhibition": "inactive: 28.8%"}
{"smiles": "CCn1c(SCC(=O)Nc2cccc(C)c2)nc2c(c1=O)SC(C)C2", "note": "(stereo unspecified)", "Potency": "inconclusive: 31.6 µM [activator, single point]"}
{"smiles": "C#C[C@@]1(O)CCC2C3CCc4cc(O)ccc4C3CC[C@@]21C", "note": "(stereo partly specified)", "activity change, negative = inhibition": "inactive: -0.509%"}
{"smiles": "Cc1ccc(Nc2c3c(nc4ccccc24)CCC3)cc1", "Potency": "inconclusive: 14.1 µM [inhibitor, partial curve, poor fit]"}
{"smiles": "Cc1ccc(CNC(=O)C2CC(c3cccc(F)c3)=NO2)cc1", "note": "(stereo unspecified)", "activity change, negative = inhibition": "inactive: 18.8%"}
{"smiles": "COc1ccc(OC)c(-c2cc(C(=O)NCc3cccs3)no2)c1", "activity change, negative = inhibition": "inactive: 42%"}
{"smiles": "Cc1nc(Nc2ccccc2)sc1C", "Potency": "active: 3.55 µM"}
{"smiles": "COc1cccc(NC(=S)NCCC(c2ccccc2)c2ccccc2)c1", "Potency": "inconclusive: 28.2 µM [inhibitor, single point]"}
{"smiles": "Cc1[nH]c(=O)c(C(=O)/C=C/c2ccccc2F)c2c1CCCC2", "Potency": "active: 5.62 µM"}
{"smiles": "C=CCS/C(N)=N\\N=C\\c1cc(Br)cc([N+](=O)[O-])c1O", "Potency": "active: 0.316 µM"}
{"smiles": "O=C(/C=C/c1ccco1)NC(=S)Nc1ccccc1N1CCCC1", "Potency": "inconclusive: 5.62 µM [inhibitor, single point]"}
{"smiles": "COCCn1c(=O)c(-c2ccc(F)cc2)nc2cnc(Oc3ccccc3)nc21", "Potency": "inconclusive: 14.1 µM [activator, single point]"}
{"smiles": "CCN(CC)S(=O)(=O)c1ccc(C(=O)NC2=NCCS2)cc1", "activity change, negative = inhibition": "inactive: -18.2%"}
{"smiles": "CC1CCc2c(C(=O)Nc3cccc(-c4nn[nH]n4)c3)csc2C1", "note": "(stereo unspecified)", "activity change, negative = inhibition": "inactive: -0.727%"}
{"smiles": "CCN(CC)S(=O)(=O)c1cccc(NC(=O)c2cc(=O)[nH]c3ccccc23)c1", "Potency": "inconclusive: 11.2 µM [activator, single point]"}
{"smiles": "COc1ccc(/C=C2\\Sc3ccc(C(=O)N4CCN(Cc5ccccc5)CC4)cc3N(C)C2=O)cc1OC", "activity change, negative = inhibition": "inactive: 38.3%"}
{"smiles": "COc1cc2c(cc1OC)CN(C1CCCN(Cc3cc(Cl)ccc3O)C1)CC2", "note": "(stereo unspecified)", "activity change, negative = inhibition": "inactive: 2.62%"}
{"smiles": "O=C(CSc1ccc2nnc(CCNC(=O)c3ccccc3)n2n1)Nc1ccc(F)cc1F", "activity change, negative = inhibition": "inactive: 0.119%"}
{"smiles": "CCCc1cc2c(n1CCc1ccc(Cl)cc1)C(C)C1CN(C(=O)c3ccccc3)C(C)(C(=O)OC)C21", "note": "(stereo unspecified)", "activity change, negative = inhibition": "inactive: 4.28%"}
{"smiles": "C=C1[C@@H](OC(C)=O)CC[C@]2(C)[C@@H]1C[C@@H]1C[C@H](OC(C)=O)C(C)=C([C@@H](OC(C)=O)[C@@H]2OC(C)=O)C1(C)C", "activity change, negative = inhibition": "inactive: 0.23%"}
{"smiles": "Cc1ccccc1OCCNC(=O)/C=C/c1ccc([N+](=O)[O-])cc1", "Potency": "inconclusive: 12.6 µM [activator, single point]"}
{"smiles": "COc1ccc(Cl)cc1NC(=O)COC(=O)/C=C/c1c(C)nn(C2CCS(=O)(=O)C2)c1Cl", "note": "(stereo unspecified)", "Potency": "inconclusive: 14.1 µM [activator, partial curve]"}
{"smiles": "CC1CCCCC1NC(=O)C1CCN(C(=O)c2sccc2-n2cccc2)CC1", "note": "(stereo unspecified)", "Potency": "inconclusive: 2.82 µM [activator, partial curve, poor fit]"}
{"smiles": "COc1cc(C(=O)N/C(=C\\c2cn(C)c3ccccc23)C(=O)NCCCN2CCOCC2)cc(OC)c1OC", "activity change, negative = inhibition": "inactive: 0.836%"}
{"smiles": "COc1cc(/C=C/c2ccc3cccc(OC)c3n2)c(OC(C)=O)c([N+](=O)[O-])c1", "Potency": "inconclusive: 35.5 µM [inhibitor, single point]"}
{"smiles": "CC1=CC2=NC(=O)/C(=C\\c3cccn3CCOc3ccccc3)C(=N)N2O1", "activity change, negative = inhibition": "inactive: 0.573%"}
{"smiles": "Cc1cccc(NC(=O)COc2cccc3c2CCN(C)C3=O)c1C", "Potency": "inconclusive: 3.16 µM [inhibitor, partial curve, poor fit]"}
{"smiles": "CC(C)c1[nH]nc2c1C(c1ccc(OC(=O)c3ccco3)cc1)C(C#N)=C(N)O2", "note": "(stereo unspecified)", "Potency": "inconclusive: 0.112 µM [activator, full curve, poor fit]"}
{"smiles": "CCOc1ccccc1NC(=S)NC(=O)CCCOc1ccc(Cl)cc1Cl", "Potency": "active: 5.01 µM"}
{"smiles": "CN(C)S(=O)(=O)c1cccc(NC(=O)COc2ccc(C(=O)c3ccccc3)cc2)c1", "Potency": "inconclusive: 31.6 µM [activator, single point]"}
{"smiles": "CC(C)[C@@H](NC(=O)C1CCN(C(=O)[C@@H]2CCCN2C(=O)OC(C)(C)C)CC1)C(=O)NCc1ccc(F)cc1", "Potency": "inconclusive: 12.6 µM [inhibitor, single point]"}
{"smiles": "CCCCn1c(SCc2nc3ccccc3s2)nc2ccccc2c1=O", "activity change, negative = inhibition": "inactive: -6.77%"}
{"smiles": "COc1cccc(NC(=O)CN2C(=O)CSc3ccc(S(=O)(=O)N4CCCCC4)cc32)c1", "activity change, negative = inhibition": "inactive: 9.55%"}
{"smiles": "CC1(C)Cc2ccccc2C2=NNC(=O)C2=N1", "Potency": "inconclusive: 22.4 µM [inhibitor, single point]"}
